Assay results published in patent publication US20050196797A1.
Results are given in words; binding and its absence hold for the method and conditions named. For some assays here: Binding seen in cells or lysates may run through a third protein. Some binding calls cover weakened binding; strength is not graded here.

Amino acid sequences for entries named in this document (tags omitted).
UniProt Q96Q15: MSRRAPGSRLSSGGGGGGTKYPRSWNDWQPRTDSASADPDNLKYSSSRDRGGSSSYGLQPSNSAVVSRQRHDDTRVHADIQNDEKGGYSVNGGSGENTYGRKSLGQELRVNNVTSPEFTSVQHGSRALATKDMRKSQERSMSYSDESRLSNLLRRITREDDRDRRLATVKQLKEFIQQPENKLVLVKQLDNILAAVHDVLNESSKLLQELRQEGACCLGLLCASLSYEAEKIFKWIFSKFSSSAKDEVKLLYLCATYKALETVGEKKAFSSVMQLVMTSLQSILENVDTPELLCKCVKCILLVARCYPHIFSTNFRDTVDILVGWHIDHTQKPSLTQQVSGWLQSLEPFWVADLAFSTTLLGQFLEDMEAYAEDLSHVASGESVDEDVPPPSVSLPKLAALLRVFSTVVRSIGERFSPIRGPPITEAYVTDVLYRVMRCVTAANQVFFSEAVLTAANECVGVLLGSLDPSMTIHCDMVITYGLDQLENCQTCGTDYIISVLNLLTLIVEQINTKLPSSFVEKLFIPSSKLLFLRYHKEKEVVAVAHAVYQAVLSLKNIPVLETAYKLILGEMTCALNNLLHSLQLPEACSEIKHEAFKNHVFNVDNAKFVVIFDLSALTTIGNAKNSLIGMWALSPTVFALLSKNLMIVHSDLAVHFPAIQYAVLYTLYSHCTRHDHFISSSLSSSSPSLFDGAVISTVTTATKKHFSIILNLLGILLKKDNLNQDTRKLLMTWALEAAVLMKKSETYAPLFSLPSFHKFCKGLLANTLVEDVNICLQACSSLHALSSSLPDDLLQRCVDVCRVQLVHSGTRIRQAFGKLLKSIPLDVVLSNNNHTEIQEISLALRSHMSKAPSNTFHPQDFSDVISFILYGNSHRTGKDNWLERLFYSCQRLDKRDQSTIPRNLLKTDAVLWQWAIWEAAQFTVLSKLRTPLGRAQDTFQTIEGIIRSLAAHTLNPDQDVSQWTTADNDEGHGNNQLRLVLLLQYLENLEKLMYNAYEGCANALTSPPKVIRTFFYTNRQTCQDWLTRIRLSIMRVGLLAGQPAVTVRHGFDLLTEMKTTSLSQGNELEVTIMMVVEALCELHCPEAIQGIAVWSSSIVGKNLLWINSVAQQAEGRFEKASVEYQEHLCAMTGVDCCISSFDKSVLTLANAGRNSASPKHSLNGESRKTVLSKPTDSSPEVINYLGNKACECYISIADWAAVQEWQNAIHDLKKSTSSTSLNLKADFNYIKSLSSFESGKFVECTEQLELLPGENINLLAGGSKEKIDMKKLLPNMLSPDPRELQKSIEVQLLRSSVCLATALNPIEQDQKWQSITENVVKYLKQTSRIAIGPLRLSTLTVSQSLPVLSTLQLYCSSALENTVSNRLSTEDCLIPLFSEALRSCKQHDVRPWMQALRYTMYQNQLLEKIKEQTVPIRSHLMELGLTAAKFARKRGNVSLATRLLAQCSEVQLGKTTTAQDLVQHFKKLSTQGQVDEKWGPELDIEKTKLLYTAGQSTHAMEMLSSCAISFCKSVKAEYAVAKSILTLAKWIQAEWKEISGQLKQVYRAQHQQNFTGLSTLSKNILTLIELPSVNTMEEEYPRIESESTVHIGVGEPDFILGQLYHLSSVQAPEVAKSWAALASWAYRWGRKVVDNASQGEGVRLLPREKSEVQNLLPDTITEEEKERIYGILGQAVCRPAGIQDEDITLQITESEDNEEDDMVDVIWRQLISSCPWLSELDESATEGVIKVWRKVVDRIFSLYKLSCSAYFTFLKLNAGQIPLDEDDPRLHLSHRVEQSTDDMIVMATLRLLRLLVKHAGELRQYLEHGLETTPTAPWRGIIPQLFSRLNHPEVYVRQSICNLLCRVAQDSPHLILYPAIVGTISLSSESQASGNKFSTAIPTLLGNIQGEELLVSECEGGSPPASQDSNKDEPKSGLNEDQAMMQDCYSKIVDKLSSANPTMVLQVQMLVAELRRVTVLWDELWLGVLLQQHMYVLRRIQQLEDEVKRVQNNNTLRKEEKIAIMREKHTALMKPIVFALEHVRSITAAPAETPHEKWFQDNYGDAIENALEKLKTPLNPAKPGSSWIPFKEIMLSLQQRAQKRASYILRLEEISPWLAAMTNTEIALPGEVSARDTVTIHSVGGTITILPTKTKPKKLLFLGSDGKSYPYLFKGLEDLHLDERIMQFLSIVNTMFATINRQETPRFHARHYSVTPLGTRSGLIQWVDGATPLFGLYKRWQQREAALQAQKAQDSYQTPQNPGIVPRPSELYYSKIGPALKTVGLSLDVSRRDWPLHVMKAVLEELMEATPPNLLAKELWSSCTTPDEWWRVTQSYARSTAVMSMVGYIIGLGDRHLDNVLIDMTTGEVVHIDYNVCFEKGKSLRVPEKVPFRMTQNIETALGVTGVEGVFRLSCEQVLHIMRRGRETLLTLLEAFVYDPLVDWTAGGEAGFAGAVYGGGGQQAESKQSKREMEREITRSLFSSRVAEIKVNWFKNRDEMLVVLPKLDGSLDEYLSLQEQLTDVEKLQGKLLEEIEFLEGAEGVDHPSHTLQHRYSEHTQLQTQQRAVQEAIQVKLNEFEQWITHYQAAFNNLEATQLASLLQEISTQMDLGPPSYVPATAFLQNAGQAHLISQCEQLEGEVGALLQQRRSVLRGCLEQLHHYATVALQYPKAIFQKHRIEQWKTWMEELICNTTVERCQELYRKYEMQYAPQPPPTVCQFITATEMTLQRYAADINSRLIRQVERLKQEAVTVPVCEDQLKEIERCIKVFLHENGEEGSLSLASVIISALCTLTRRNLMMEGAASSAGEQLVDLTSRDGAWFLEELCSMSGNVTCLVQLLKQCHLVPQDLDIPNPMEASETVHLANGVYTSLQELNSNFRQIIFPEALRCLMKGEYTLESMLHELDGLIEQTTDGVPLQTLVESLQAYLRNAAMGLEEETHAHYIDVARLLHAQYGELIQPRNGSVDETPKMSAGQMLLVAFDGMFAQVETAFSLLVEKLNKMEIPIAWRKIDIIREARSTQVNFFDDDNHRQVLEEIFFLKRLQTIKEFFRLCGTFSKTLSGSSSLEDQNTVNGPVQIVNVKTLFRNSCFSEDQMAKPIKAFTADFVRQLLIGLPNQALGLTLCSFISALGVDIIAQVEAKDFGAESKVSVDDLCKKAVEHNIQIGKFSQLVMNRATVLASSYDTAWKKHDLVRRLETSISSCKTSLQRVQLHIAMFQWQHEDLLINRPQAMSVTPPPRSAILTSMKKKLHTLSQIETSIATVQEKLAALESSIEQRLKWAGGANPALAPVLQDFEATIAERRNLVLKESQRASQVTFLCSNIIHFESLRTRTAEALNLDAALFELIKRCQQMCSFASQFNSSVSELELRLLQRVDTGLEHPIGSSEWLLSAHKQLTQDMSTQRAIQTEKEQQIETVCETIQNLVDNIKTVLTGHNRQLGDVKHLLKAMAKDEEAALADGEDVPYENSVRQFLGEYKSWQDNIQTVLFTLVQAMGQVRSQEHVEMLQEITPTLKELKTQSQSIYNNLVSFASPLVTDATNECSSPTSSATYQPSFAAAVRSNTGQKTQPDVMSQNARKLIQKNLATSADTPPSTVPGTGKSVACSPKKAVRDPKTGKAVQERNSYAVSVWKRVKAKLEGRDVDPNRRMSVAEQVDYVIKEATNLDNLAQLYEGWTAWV

What was measured:
[1] = target: human SMG-1 (hSMG-1) (human) (UniProt Q96Q15); assay: anion exchange fractionation of HeLa extract, immunoprecipitation of each fraction with antiserum C, phosphorylation, autoradiography
[2] = target: human SMG-1 (hSMG-1) (human) (UniProt Q96Q15); assay: co-immunoprecipitation from HeLa cell extract with anti-hSMG-1 antiserum C, detected as a phosphorylated band
[3] = target: human SMG-1 (hSMG-1) (human) (UniProt Q96Q15); assay: co-immunoprecipitation from HeLa cell extract with anti-hSMG-1 IgG (antibody N), SDS-PAGE, silver staining
[4] = target: human SMG-1 (hSMG-1) (human) (UniProt Q96Q15); assay: co-immunoprecipitation from HeLa cell extract with anti-hSMG-1 antiserum N, L or C, Western blotting with anti AK026858.1-translated-product antibody
[5] = target: human SMG-1 (hSMG-1) (human) (UniProt Q96Q15); assay: co-immunoprecipitation from HeLa cell extract with anti-hSMG-1 antiserum L, detected as a phosphorylated band

Measured: binding

B1: SMGBP1 (SMG Binding Protein 1) (protein)
chain: MAGPVSLRDLLMGASAWMGSESPGGSPTEGGGSAAGGPEPPWREDEICVVGIFGKTALRLNSEKFSLVNTVCDRQVFPLFRHQDPGDPGPGIRTEAGAVGEAGGAEDPGAAAGGSVRGSGAVAEGNRTEAGSQDYSLLQAYYSQESKVLYLLLTSICDNSQLLRACRALQSGEAGGGLSLPHAEAHEFWKHQEKLQCLSLLYLFSVCHILLLVHPTCSFDITYDRVFRALDGLRQKVLPLLKTAIKDCPVGKDWKLNCRPCPPRLLFLFQLNGALKVVPPRNQDPAHPDKPKKHSPKRRLQHALEDQIYRIFRKSRVLTNQSINCLFTVPANQAFVYIVPGSQEEDPVGMLLDQLRSHCTVKDPESLLVPAPLSGPRRYQVMRQHSRQQLSFHIDSSSSSSSGQLVDFTLWEFLWQHVELVLSKKGFDDSVGRNPQPSHFELPTYQKWISAASKLYEVAIDGKEEDLGSPTGELTSKILSSIKVLEGFLDIDTKFSENRCQKALPMAHSAYQSNLPHNYTMTVHKNQLAQALRVYSQHARGPAFHKYAMQLHEDCYKFWSNGHQLCEERSLTDQHCVHKFHSLPKSGEKPEADRNPPVLYHNSRARSTGACNCGRKQAPRDDPFDIKAANYDFYQLLEEKCCGKLDHINFPVFEPSTPDPAPAKNESSPAPPDSDADKLKEKEPQTQGESTSLSLALSLGQSTDSLGTYPADPQAGGDNPEVHGQVEVKTEKRPNFVDRQASTVEYLPGMLHSNCPKGLLPKFSSWSLVKLGPAKSYNFHTGLDQQGFIPGTNYLMPWDIVIRTRAEDEGDLDTNSWPAPNKAIPGKRSAVVMGRGRRRDDIARAFVGFEYEDSRGRRFMCSGPDKVMKVMGSGPKESALKALNSDMPLYILSSSQGRGLKPHYAQLMRLFVVVPDAPLQIILMPQVQPGPPPCPVFYPEKQEITLPPDGLWVLRFPYAYVTERGPCFPPKENVQLMSYKVLRGVLKAVTQ
binds: all assays above
